For 3 molecules, binding results are on record in paper PMC9658869.

Sequences of proteins named here, by UniProt entry; tags and fusion partners are left off.
UniProt P10275: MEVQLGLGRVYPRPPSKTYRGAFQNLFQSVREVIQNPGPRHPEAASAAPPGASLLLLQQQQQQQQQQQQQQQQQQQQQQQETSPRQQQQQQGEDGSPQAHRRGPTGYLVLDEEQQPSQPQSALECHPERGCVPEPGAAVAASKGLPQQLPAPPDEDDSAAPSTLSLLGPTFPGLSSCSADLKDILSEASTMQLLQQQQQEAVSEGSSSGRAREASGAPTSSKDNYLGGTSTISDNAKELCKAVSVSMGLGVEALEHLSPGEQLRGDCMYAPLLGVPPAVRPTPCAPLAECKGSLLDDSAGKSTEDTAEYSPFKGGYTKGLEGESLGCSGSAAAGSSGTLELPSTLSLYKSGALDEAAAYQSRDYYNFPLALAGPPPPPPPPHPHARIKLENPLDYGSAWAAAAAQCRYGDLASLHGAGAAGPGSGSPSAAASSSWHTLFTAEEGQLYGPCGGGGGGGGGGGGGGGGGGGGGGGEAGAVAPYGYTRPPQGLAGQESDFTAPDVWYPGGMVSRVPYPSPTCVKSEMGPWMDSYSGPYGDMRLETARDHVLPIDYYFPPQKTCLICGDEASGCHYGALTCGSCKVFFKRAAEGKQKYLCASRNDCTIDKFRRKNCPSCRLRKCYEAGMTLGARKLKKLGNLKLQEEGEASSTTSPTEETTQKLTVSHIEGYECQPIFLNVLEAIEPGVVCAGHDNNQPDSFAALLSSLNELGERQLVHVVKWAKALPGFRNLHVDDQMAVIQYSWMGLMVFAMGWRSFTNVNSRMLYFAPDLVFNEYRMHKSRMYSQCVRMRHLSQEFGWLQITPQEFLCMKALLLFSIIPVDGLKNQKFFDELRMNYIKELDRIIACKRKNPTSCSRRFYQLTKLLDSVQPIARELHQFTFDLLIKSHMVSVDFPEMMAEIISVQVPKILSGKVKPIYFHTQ

The chains are these.
T1: Cyclin dependent kinase 2 associated protein 1 (CDK2AP1) (human (endogenous in HEK293)) (UniProt O14519)
T1 sequence: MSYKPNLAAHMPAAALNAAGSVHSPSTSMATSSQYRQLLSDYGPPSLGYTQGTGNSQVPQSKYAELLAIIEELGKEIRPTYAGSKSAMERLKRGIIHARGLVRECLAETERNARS

B1: ETS-related gene (ERG) (protein, UniProt P11308 1-479)
chain: MASTIKEALSVVSEDQSLFECAYGTPHLAKTEMTASSSSDYGQTSKMSPRVPQQDWLSQPPARVTIKMECNPSQVNGSRNSPDECSVAKGGKMVGSPDTVGMNYGSYMEEKHMPPPNMTTNERRVIVPADPTLWSTDHVRQWLEWAVKEYGLPDVNILLFQNIDGKELCKMTKDDFQRLTPSYNADILLSHLHYLRETPLPHLTSDDVDKALQNSPRLMHARNTGGAAFIFPNTSVYPEATQRITTRPDLPYEPPRRSAWTGHGHPTPQSKAAQPSPSTVPKTEDQRPQLDPYQILGPTSSRLANPGSGQIQLWQFLLELLSDSSNSSCITWEGTNGEFKMTDPDEVARRWGERKSKPNMNYDKLSRALRYYYDKNIMTKVHGKRYAYKFDFHGIAQALQPHPPESSLYKYPSDLPYMGSYHAHPQKMNFVAPHPPALPVTSSSFFAAPNPYWNSPTGGIYPNTRLPTSHMPSHLGTYY

No constants are given. Whether binding was seen depends on the method and setting. In cells and extracts the contact can be indirect. Some entries that bind do so weakly or less than the wild type.

The target in this experiment is T1, Cyclin dependent kinase 2 associated protein 1 (CDK2AP1) (human (endogenous in HEK293)). Briefly: co-IP; CDK2AP1 monoclonal mouse antibody (5 ug) or IgG (negative control) on Pierce NHS-activated magnetic beads, incubated with 1500 ug of total HEK293 lysate for 2 h or overnight at 4 °C; eluate read by Western blotting. (Immunoblotting shows a protein as a band on a membrane.)
“Androgen receptor (AR) (from UniProt P10275 1-920)”: the binding entry is on record as “no binding”.
Under p53 (from UniProt P04637 1-393) stands “binds”; under B1, “no binding”.
